This is an account of results in patent US20160280786A1.

Protein sequences, listed by entry. Tags and fused reporters are not part of them. Lines headed by an entry give the natural chain unless they say otherwise; changes in a name come on top. Chains listed by the source or under a name are the forms on record and can include a tag or linker.
human CTLA4 (Y201 mutated to valine) on stably transfected CHO-K1 cells (P16410, form named): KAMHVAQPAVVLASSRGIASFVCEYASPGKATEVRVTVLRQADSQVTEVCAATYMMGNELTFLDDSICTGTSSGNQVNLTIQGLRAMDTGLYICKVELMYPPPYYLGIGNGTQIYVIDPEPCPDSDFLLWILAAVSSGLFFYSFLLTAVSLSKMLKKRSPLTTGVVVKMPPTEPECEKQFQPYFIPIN

No constants are given. Whether binding was seen depends on the method and setting. Some entries that bind do so weakly or less than the wild type.

In this test the target is human CTLA4 (Y201 mutated to valine) on stably transfected CHO-K1 cells (human) (UniProt P16410). Description: FACS direct binding titration on CHO cells with human CTLA4; column in nM.

B1: 4CTLAPMP08E5 (VHH)
VHH: EVQLVESGGGLVQPGGSLRLSCAASRDIFTRNIMGWYRQAPGKQRDLVASITPGGNMYYADSVKGRFTISRDGAKNTVYLQMNSLKPEDTAVYYCNAHGSILLDRSNYWGQGTQVTVSS
Turning to B1, the binding result is given as “binds”.
